Measurements published in patent publication US20110144029A1, “Model Systems and Materials for the Study and Treatment of Neurodegenerative Diseases” (BOARD OF REGENTS, THE UNIVERSITY OF TEXAS SYSTEM, priority 2009, published 2011).

System: HT-22 cells
Assay: Subcellular localization of FITC-tagged T-peptide by fluorescence microscopy
Format: cell-based
Conditions: 3 h treatment

Q: Which cell entry does the source give for “FITC-(Ahx)2-vqivyk-R9-NH2 [T-FITC-peptide]” here?
A: enters the cell

Q: What about the subcellular localization of the same substance?
A: localizes predominantly in the nucleus
